According to patent US7049340B1, “Neuroprotective and retinoprotective ophthalmologic drugs” (priority 1999, dated 2006):

System: patients with glaucomatous neuropathy
Assay: Clinical treatment of glaucomatous neuropathy: visual acuity, automated perimetry, ocular tension
Assay type: in vivo, human
Details: Mean; for Short term fluctuation SF: normal 0..2
Experimental: The invention will now be illustrated by the following description of clinical examples which, of course, are not limiting in nature. In these examples the active principle, in particular ramipril, was administered continuously in an oral form, in an amount of 1.25 mg per day.
FIGS. 1 and 2 reproduce the fields of vision of the left eye; FIGS. 3 and 4 reproduce the field of vision of the right eye as perceived by one of the treated patients who suffered from glaucomatous neuropathy, respectively before treatment (FIGS. 1 and 3) and after treatment, 10 days later (FIGS. 2 and 4).
The grey scale provides an “image” of visual function, point by point, of different regions of the retina; the palest zones correspond to regions in which the visual functions are the least altered; the darkest zones correspond to those that have altered the most. […] A reduction in the darkest regions also indicates local visual recovery in regions that have become lighter.
The values that appear in the right hand portions of the figures correspond to the threshold values measured locally at set points in the retina. […] In contrast, the values that appear in the lower right hand portions of the figures correspond to local loss of vision in the zones concerned of the retina compared with the normal.
The Bebie curves also provide comparative images of the visual capacity of the subject under examination (lower curves) compared with the curves for normal or quasi-normal subjects (upper curves).

SMILES: CCOC(=O)[C@H](CCc1ccccc1)N[C@@H](C)C(=O)N1[C@H](C(=O)O)C[C@@H]2CCC[C@@H]21 [ramipril]
- Short term fluctuation SF (left eye after treatment (10 days), before 2.7): 3.0 dB^2
- Reliability factor RF (left eye after treatment (10 days), before 4.9): 5.0%
- Reliability factor RF (right eye after treatment (10 days), before 2.3): 2.3%
- Short term fluctuation SF (right eye after treatment (10 days), before 3.0): 2.6 dB^2
